# Test results from PubChem BioAssay AID540303 (National Center for Advancing Translational Sciences (NCATS), 2011).
# Values joined by “and” are separate entries in the source; they are usually repeats but may differ in a detail not shown here. Equal entries are not always repeated. About 1,000 (0.3%) of roughly 330,000 compounds were called active. This list was built around the results that the source calls inconclusive (neither active nor inactive); the mix of calls is not that of the screen. The call rests on the fitted dose curve; in most records, active means well fitted inhibition curve with a large enough effect; inconclusive means small, poorly fitted or top-dose-only effect; inactive means no such curve, though single readings can be large or run the other way; tested in mouse RAW 264.7 cells. Potencies of inconclusive entries are doubtful fits and often do not repeat.
# Assay: qHTS for Inhibitors of Cell Surface uPA Generation; further: nearly all actives have a fitted effect of over 55% in size
# Settings: cell surface uPA generation assay; series mostly up to 38.3 µM
# In short: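 Validation set in qHTS format. RAW 264.7 cells were pre-plated overnight and then exposed to compounds (up to 38.3 uM final) for 24 h at 37 C in 5% CO2, followed by a luminescent ATP-Lite measurement.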
# Potency means the concentration at half of the fitted maximal effect.
row,SMILES,Potency
1,Cn1c(NCc2ccccc2Cl)nc2ccccc21,"inconclusive: 12.6 µM [inhibitor, single point]"
2,O=C(c1cccc(Cl)c1)N1CCC2(CC1)NCCc1[nH]cnc12,"inconclusive: 12.6 µM [inhibitor, single point]"
3,Cc1cccc(NC(=O)CSc2nsc(SCC(=O)Nc3cccc(C)c3)c2C#N)c1,"inconclusive: 22.4 µM [inhibitor, single point]"
4,COc1ccc(-c2nc(N3CCOCC3)nc3n[nH]c(N)c23)cc1,inactive
5,Cc1ccc(-n2nc3c(=O)n(CC(=O)NCCCc4ccccc4)nc(C)c3c2C)cc1,active: 0.501 µM
6,Cc1c(C(=O)Nc2ccc3nc(N4CCOCC4)sc3c2)oc2ccccc12,inactive
7,COc1ccc(C2=C(N)c3ccccc3C2=O)cc1,"inconclusive: 11.2 µM [inhibitor, partial curve]"
8,Cc1cc(NC(=O)c2ccc3c(c2)OCCO3)ccc1NC(=O)c1cc2ccccc2o1,"inconclusive: 3.98 µM [inhibitor, partial curve, poor fit]"
9,CCOC(=O)c1ccc(N=c2sc(C(=O)OC)cc(=O)n2CCCN2CCOCC2)cc1,"inconclusive: 12.6 µM [inhibitor, single point] and inconclusive: 11.2 µM [inhibitor, partial curve, poor fit]"
10,Cc1cc(C(=O)N2CCN(c3ccc(C(F)(F)F)cn3)CC2)c(C)o1,"inconclusive: 10 µM [inhibitor, partial curve, poor fit]"
11,COC(=O)c1cc(=O)n(CCc2ccc(OC)cc2)c(=Nc2ccc(F)c(Cl)c2)s1,"inconclusive: 3.98 µM [inhibitor, partial curve, poor fit]"
12,COc1ccc(OCCCC(=O)OCC(=O)Nc2nnc(-c3ccccc3)o2)cc1,"inconclusive: 2.24 µM [inhibitor, single point]"
13,COc1ccc2c(c1)C(=O)N1[C@H]3c4cc(Br)ccc4OC[C@@H]3[C@H](c3ccccc3)[C@]1(C)C(=O)N2,"inconclusive: 10 µM [inhibitor, single point]"
14,O=C(NC1CCCCC1)C(c1ccc(F)cc1)N(CCc1ccccc1)C(=O)CN1C(=O)c2ccccc2S1(=O)=O (stereo unspecified),inactive
15,COc1ccc2c(c1)[C@H]1[C@H](CO2)[C@H](c2ccccc2)[C@]2(C)C(=O)Nc3cc(F)ccc3C(=O)N12,"inconclusive: 28.2 µM [inhibitor, single point]"
16,C[C@H](CO)N1C[C@H](C)[C@@H](CN(C)Cc2ccc(-c3ccccc3)cc2)Oc2c(NS(=O)(=O)c3cccs3)cccc2C1=O,"inconclusive: 12.6 µM [inhibitor, single point]"
17,C[C@@H]1CN([C@H](C)CO)C(=O)Cc2cc(NC(=O)Nc3ccccc3)ccc2O[C@@H]1CN(C)Cc1ccc2c(c1)OCO2,"inconclusive: 12.6 µM [inhibitor, single point]"
18,CC(C)(C)OC(=O)NCc1ccc(CNC(=O)c2[nH]cnc2C(=O)N[C@@H](Cc2ccccc2)C(=O)OC(C)(C)C)cc1,"inconclusive: 12.6 µM [inhibitor, single point]"
19,Cn1ncc2c(O/N=C(\N)c3ccc(C(F)(F)F)cc3)ncnc21,active: 2.82 µM
20,CC[C@]12c3[nH]c4cc(CCC(=O)N(C)C)ccc4c3CCN1C(=O)[C@@H](CC(=O)NC/C=C(\C)CCC=C(C)C)C[C@@H]2C(=O)N1CCN(C(=O)c2ccco2)CC1,"inconclusive: 20 µM [inhibitor, single point]"
21,CC(=O)OCC1OC(n2cc(F)c(=O)[nH]c2=O)C(OC(C)=O)C1OC(C)=O (stereo unspecified),"inconclusive: 3.16 µM [inhibitor, partial curve, poor fit]"

row,SMILES,Potency
1,O=C1c2ccccc2NC(c2ccc(Br)o2)N1O (stereo unspecified),"inconclusive: 6.31 µM [inhibitor, partial curve]"
2,CCN(Cc1ccncc1)C(=O)c1ccc2c(c1)S(=O)(=O)c1ccccc1C2=O,"inconclusive: 7.94 µM [inhibitor, partial curve]"
3,Cc1ccc(-c2nc(CS(=O)CC(=O)NCCCN3CC(C)CC(C)C3)c(C)o2)cc1 (stereo unspecified),"inconclusive: 7.08 µM [inhibitor, single point]"
4,COc1ccc(/C=C/C(=O)C(C)(C)C)cc1OC,"inconclusive: 6.31 µM [inhibitor, partial curve, poor fit]"
5,CC(C)c1ccc(NC(=O)C2CCCN(S(=O)(=O)c3ccc4c(c3)C(C)(C)C(=O)N4C)C2)cc1 (stereo unspecified),"inconclusive: 14.1 µM [inhibitor, partial curve, poor fit]"
6,CCCCCCCCNC(=S)NCCN1CCCCC1,"inconclusive: 10 µM [inhibitor, partial curve, poor fit]"
7,COc1ccccc1Nc1nn2c(=O)c3ccc(C(=O)N4CCCC(C)C4)cc3nc2s1 (stereo unspecified),inactive
8,Cc1ccn2c(=O)c(C(=O)NCCN3CCOCC3)c(O)nc2c1,"inconclusive: 2 µM [inhibitor, partial curve, poor fit]"
9,CCCOc1ccc(C(=O)Nc2ccc(S(=O)(=O)N3C[C@@H]4C[C@@H](C3)c3cccc(=O)n3C4)cc2)cc1,"inconclusive: 8.91 µM [inhibitor, partial curve, poor fit]"
10,Cn1c(=NC(=O)C2CC2)sc2cccc(F)c21,"inconclusive: 11.2 µM [inhibitor, single point]"
11,Nc1c(C(=O)NCc2ccco2)c2nc3ccccc3nc2n1CCc1ccc(F)cc1,inactive
12,CN(C)C(=O)COC(=O)c1ccccc1Nc1ccc(SC(F)F)cc1,"inconclusive: 5.62 µM [inhibitor, partial curve, poor fit]"
13,O=c1cc(-c2ccccc2)nc2nc(-c3ccccc3)[nH]n12,inactive
14,COc1ccc(CNC(=O)CCC(=O)n2ncc3cc(C)ccc32)cc1,"inconclusive: 8.91 µM [inhibitor, single point]"
15,O=C1CSC(c2ccccc2O)N1Cc1ccccc1 (stereo unspecified),"inconclusive: 7.94 µM [inhibitor, single point]"
16,Cc1ccc2c(c1C)NC(=O)C21N2CCCC2C(C(=O)c2ccc3ccccc3c2)C12C(=O)Nc1ccccc12 (stereo unspecified),"inconclusive: 11.2 µM [inhibitor, single point]"
17,C#Cc1ccc([C@H]2C=C(C(=O)NCc3ccccc3)O[C@@H](OCC)[C@@H]2CCCO)cc1,"inconclusive: 1 µM [inhibitor, single point]"
18,COCC(=O)Nc1ccc(N2CCOCC2)c(S(=O)(=O)Nc2ccc(OC)cc2)c1,"inconclusive: 12.6 µM [inhibitor, single point]"
19,O=C(O)c1ccc(Cn2ccc3ccccc32)o1,"inconclusive: 0.447 µM [inhibitor, full curve, poor fit]"
20,O=C1c2ccccc2N2C(=O)c3ccccc3[C@H]2N1c1ccccc1,inactive
21,N#Cc1ccc(C(=O)Nc2ccc(S(=O)(=O)NC3=NCCCCC3)cc2)cc1,inactive

row,SMILES,Potency
1,COc1ccc(C(CNC(=O)COc2ccc(Br)cc2F)N2CCCC2)cc1 (stereo unspecified),inactive
2,Clc1ccccc1CSc1nc2ccncc2[nH]1,active: 3.98 µM
3,CCN(CC(=O)N1CCCC1)S(=O)(=O)c1ccc(F)cc1,"inconclusive: 0.316 µM [inhibitor, full curve, poor fit]"
4,CCN(CC)P(=O)(Nc1ccc(SC(F)F)cc1)c1ccc(N(C)C)cc1NC(=O)c1ccco1 (stereo unspecified),"inconclusive: 11.2 µM [inhibitor, single point]"
5,CCCCCCSc1ccc([C@H]2N[C@@](Cc3ccccc3)(C(=O)OC)[C@H]3C(=O)N(C)C(=O)[C@@H]23)cc1,"inconclusive: 28.2 µM [inhibitor, single point]"
6,Cc1ccc2nc(CSc3nc(C)nc4c3oc3ccccc34)[nH]c2c1,"inconclusive: 12.6 µM [inhibitor, single point]"
7,Cc1nc(-c2ccccc2)sc1C(=O)NN,active: 10 µM
8,CC1CC(C)CN(S(=O)(=O)N2CCC(C(=O)NCCc3ccccc3)CC2)C1 (stereo unspecified),inactive
9,Cc1cccc(-n2ncc3c(NC4CCCCC4)ncnc32)c1,active: 11.2 µM
10,COc1ccc(-c2nc(CS(=O)CC(=O)N3CCc4ccccc4C3)c(C)o2)cc1 (stereo unspecified),"inconclusive: 8.91 µM [inhibitor, partial curve, poor fit]"
11,CCCCCCc1c(C)nc(-n2[nH]c(C)c(CCO)c2=O)[nH]c1=O,inactive
12,CCc1ccc(S(=O)(=O)Nc2cc(SCC(=O)O)c(O)c3ccccc23)cc1,"inconclusive: 28.2 µM [inhibitor, single point]"
13,COc1ccccc1Nc1nc(Cl)nc(Nc2ccccc2OC)n1,inactive
14,COc1ccc2sc(N(CCCN(C)C)C(=O)c3ccc(S(=O)(=O)N(C)Cc4ccccc4)cc3)nc2c1,"inconclusive: 4.47 µM [inhibitor, partial curve, poor fit]"
15,Cc1ccc(NC(=O)CN(C)C(=O)c2cccc(S(=O)(=O)NCc3cccs3)c2)cc1,"inconclusive: 0.562 µM [inhibitor, full curve, poor fit]"
16,CCOC(=O)c1c(C)[nH]c(C)c1C(=O)COC(=O)/C=C/c1ccccc1[N+](=O)[O-],"inconclusive: 22.4 µM [inhibitor, single point]"
17,O=C(CN1CCN(C(=O)c2cncn2-c2ccccc2)CC1)Nc1ccccc1Cl,inactive
18,COc1ccc(C(CNC(=O)C(C)(C)Oc2ccc(Cl)cc2)N2CCCC2)cc1 (stereo unspecified),"inconclusive: 7.08 µM [inhibitor, single point]"
19,CCOC(=O)c1cc2c(ccn2C)n1Cc1ccc(Cl)cc1,"inconclusive: 28.2 µM [inhibitor, single point]"

# Two records drawn at random from those above:
row,SMILES,Potency
2,Clc1ccccc1CSc1nc2ccncc2[nH]1,active: 3.98 µM
12,CCc1ccc(S(=O)(=O)Nc2cc(SCC(=O)O)c(O)c3ccccc23)cc1,"inconclusive: 28.2 µM [inhibitor, single point]"
